Laboratory results reported in the supplement of paper PMC12823440, “Inhibitors supercharge kinase turnover through native proteolytic circuits” (Nature, 2025).
Some of the results follow. Hit calls seldom repeat between salt and free forms of one compound.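 Kinases, fused to nanoluciferase, were expressed in K562 cells; luminescence was measured every 4 h from 2 to 18 h as percent of control (DMSO = 100%, positive control = 0%). A time point is decreased if signal falls significantly (2 sigma). Hits were called by the authors by a rule that is not shown; the count of time points alone does not decide it.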

Protein sequences, listed by entry. Tags and fused reporters are not part of them. Lines headed by an entry give the natural chain unless they say otherwise; changes in a name come on top.
UniProt Q9Y616: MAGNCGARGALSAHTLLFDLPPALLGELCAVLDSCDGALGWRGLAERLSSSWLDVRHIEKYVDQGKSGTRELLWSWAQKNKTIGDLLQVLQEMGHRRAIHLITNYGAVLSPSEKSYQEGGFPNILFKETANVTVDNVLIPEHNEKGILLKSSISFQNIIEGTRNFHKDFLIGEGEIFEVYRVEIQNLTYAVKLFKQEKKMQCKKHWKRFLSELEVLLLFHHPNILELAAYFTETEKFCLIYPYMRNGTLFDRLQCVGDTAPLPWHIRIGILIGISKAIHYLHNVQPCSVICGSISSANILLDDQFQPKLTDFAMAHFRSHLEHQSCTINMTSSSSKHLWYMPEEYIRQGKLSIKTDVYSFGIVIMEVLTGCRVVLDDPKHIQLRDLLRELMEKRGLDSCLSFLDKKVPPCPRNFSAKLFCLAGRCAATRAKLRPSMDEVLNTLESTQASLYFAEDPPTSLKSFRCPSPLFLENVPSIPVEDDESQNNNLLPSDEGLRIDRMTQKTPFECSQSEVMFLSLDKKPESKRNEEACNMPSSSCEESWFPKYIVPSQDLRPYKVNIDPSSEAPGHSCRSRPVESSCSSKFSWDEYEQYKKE
UniProt P23458: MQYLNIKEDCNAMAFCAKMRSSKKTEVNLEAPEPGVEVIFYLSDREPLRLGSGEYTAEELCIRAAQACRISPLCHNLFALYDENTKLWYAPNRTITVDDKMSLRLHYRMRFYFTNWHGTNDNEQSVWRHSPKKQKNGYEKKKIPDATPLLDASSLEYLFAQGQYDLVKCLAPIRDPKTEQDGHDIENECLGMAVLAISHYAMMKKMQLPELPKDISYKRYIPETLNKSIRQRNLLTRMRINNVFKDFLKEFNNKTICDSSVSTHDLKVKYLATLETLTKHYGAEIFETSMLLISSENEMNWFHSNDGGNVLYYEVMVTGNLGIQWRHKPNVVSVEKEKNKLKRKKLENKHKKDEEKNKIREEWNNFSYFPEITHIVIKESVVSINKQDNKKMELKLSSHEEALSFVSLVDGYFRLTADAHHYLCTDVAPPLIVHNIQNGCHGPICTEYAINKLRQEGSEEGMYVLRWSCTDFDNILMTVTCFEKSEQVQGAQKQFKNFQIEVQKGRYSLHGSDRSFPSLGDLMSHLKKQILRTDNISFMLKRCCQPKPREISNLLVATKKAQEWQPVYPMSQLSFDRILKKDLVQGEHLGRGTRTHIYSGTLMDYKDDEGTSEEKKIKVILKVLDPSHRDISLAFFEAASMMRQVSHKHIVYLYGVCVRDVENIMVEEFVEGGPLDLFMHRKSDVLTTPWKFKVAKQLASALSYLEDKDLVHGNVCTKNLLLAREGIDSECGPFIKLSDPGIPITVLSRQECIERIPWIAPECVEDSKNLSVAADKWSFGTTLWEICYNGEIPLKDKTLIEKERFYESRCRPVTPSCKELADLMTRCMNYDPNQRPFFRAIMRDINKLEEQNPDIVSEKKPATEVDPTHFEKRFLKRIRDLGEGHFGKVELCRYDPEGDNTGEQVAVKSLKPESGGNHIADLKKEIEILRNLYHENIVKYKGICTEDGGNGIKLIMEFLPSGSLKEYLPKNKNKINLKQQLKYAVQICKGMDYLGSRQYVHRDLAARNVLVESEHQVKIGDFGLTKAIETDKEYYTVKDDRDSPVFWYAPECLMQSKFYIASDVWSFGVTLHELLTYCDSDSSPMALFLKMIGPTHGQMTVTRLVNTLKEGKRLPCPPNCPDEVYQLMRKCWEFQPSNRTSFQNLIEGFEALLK
UniProt P07948: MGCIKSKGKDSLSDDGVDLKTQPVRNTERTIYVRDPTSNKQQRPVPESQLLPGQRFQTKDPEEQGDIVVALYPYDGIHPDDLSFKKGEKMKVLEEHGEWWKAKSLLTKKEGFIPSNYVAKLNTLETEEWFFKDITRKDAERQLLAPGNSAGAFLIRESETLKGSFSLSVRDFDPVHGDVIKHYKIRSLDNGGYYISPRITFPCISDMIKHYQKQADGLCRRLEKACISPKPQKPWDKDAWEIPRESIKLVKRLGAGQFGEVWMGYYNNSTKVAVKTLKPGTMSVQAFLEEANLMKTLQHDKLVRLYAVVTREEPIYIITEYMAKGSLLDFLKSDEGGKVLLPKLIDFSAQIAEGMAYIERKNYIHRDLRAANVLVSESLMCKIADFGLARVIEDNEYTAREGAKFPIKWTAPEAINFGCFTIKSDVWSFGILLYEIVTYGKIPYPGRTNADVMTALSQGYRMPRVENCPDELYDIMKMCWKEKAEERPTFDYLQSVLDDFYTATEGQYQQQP
UniProt Q12851: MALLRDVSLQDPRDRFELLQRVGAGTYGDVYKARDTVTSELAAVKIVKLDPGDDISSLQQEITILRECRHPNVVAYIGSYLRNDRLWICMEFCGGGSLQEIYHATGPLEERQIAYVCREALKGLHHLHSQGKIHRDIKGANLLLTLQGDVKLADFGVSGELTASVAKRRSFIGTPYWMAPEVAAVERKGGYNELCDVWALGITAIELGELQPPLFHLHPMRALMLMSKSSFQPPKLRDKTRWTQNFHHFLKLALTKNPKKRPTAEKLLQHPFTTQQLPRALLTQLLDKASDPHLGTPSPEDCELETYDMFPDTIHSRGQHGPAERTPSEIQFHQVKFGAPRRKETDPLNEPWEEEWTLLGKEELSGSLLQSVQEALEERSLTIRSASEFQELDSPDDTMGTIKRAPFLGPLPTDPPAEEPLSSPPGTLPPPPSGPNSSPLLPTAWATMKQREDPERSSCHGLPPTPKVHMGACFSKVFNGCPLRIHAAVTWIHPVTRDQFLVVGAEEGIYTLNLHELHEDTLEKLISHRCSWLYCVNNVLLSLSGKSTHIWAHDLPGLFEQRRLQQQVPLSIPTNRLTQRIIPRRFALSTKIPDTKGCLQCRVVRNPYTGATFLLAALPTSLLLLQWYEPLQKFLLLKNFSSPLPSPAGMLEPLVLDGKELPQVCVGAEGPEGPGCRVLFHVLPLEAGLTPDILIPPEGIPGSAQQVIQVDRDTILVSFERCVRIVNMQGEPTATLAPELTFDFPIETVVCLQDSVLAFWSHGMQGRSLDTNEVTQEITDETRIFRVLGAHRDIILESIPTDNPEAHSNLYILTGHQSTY
UniProt P28482, whole entry: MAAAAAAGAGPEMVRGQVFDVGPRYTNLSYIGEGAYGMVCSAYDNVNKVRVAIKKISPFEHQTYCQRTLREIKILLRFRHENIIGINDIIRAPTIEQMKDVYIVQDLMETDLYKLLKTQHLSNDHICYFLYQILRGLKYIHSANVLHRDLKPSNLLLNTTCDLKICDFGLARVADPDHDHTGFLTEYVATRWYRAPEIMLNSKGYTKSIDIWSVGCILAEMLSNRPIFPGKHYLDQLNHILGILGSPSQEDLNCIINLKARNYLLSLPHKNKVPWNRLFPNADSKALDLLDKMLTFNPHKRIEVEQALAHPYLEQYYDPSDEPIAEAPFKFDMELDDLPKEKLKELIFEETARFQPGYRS
UniProt P31152, whole entry: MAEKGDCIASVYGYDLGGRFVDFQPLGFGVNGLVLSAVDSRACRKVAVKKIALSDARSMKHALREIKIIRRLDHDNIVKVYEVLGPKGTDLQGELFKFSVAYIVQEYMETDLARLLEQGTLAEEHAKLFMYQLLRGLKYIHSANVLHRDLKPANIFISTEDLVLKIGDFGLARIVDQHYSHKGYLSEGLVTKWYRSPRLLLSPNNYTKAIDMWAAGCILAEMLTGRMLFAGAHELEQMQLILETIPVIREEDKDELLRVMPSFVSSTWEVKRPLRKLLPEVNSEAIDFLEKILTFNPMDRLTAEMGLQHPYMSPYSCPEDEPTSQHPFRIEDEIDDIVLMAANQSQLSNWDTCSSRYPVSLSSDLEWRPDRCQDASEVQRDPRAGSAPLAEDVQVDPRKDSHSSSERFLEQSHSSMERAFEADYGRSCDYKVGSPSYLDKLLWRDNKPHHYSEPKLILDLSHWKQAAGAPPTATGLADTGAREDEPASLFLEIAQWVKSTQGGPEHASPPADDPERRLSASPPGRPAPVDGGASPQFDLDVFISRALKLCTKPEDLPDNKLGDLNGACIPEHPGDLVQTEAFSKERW
UniProt Q16620, whole entry, looked up: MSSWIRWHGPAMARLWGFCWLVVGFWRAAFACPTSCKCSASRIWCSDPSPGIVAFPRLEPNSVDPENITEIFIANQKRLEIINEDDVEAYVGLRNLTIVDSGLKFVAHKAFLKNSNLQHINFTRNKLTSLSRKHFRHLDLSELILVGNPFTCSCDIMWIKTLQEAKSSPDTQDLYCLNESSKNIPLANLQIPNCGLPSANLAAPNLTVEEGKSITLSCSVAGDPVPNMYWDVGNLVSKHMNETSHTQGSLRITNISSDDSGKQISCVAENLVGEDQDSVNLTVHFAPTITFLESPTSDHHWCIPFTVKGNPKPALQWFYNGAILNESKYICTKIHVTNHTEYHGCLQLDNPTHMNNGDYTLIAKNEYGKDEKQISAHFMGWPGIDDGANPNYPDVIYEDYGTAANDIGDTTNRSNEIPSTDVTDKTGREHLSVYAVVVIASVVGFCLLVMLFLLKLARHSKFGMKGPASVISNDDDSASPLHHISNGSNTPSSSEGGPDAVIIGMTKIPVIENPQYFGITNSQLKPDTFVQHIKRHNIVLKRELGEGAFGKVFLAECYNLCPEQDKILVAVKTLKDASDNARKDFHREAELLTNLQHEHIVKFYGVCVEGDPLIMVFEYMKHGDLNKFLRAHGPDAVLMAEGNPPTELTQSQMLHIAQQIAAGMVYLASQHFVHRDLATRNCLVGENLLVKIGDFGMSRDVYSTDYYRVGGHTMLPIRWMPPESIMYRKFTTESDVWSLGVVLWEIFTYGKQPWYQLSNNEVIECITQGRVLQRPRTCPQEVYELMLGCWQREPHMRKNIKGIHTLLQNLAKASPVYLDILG
UniProt Q96KB5: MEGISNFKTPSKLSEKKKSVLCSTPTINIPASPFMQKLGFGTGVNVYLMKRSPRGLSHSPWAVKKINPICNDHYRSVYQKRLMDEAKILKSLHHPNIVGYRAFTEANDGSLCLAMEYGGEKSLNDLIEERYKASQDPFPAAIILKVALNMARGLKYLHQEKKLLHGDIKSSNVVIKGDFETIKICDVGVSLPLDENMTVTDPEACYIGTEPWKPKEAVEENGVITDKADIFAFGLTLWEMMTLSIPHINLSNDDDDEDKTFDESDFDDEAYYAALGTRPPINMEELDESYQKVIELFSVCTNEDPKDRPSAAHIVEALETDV
UniProt P09619, whole entry: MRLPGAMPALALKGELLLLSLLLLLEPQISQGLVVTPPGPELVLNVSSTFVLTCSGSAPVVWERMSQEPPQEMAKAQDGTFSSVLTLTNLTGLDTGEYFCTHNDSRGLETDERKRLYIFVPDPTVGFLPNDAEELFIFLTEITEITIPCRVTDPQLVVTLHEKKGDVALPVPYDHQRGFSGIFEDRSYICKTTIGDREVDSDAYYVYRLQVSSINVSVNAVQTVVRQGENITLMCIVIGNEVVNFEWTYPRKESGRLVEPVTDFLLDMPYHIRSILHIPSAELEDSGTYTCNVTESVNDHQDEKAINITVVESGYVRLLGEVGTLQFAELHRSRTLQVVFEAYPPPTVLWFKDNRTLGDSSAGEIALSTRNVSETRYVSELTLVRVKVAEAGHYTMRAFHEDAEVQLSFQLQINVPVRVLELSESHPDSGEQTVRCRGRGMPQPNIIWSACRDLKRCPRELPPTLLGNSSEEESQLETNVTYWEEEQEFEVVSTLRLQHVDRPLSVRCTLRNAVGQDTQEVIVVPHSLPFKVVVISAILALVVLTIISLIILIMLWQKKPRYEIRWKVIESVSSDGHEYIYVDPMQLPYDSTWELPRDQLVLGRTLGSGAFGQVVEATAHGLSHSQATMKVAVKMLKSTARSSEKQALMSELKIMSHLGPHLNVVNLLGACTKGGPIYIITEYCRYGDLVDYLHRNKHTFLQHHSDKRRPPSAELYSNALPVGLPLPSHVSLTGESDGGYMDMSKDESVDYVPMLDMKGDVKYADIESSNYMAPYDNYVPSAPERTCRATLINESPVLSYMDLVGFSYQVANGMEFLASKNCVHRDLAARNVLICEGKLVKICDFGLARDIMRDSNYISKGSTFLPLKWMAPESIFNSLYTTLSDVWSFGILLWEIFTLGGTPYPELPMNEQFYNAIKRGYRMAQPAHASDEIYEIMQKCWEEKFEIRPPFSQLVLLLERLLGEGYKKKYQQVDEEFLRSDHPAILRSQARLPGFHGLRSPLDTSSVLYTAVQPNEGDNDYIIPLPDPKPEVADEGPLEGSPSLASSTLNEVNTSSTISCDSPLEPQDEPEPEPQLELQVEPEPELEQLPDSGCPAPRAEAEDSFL

How the values were obtained:
Test in all cases: kinase-Nluc reporter destabilization hit call (1 = scored as downregulated) (binary); higher = compound decreases kinase abundance
Conditions in all cases: K562; 2-18 h
IRAK3 = IRAK3 (UniProt Q9Y616)
JAK1 = JAK1 (UniProt P23458)
LCK = LCK (UniProt P06239)
LIMK1 = LIMK1 (UniProt P53667)
LIMK2 = LIMK2 (UniProt P53671)
LMTK2 = LMTK2 (UniProt Q8IWU2)
LYN = LYN (UniProt P07948)
MAP2K1 = MAP2K1 (UniProt Q02750)
MAP2K2 = MAP2K2 (UniProt P36507)
MAP4K2 = MAP4K2 (UniProt Q12851)
MAPK1 = MAPK1 (UniProt P28482)
MAPK4 = MAPK4 (UniProt P31152)
MAPKAPK2 = MAPKAPK2 (UniProt P49137)
MKNK1 = MKNK1 (UniProt Q9BUB5)
NTRK2 = NTRK2 (UniProt Q16620)
NTRK3 = NTRK3 (UniProt Q16288)
PAK4 = PAK4 (UniProt O96013)
PBK = PBK (UniProt Q96KB5)
PDGFRB = PDGFRB (UniProt P09619)
PDK1 = PDK1 (UniProt Q15118)

Measured: kinase-Nluc reporter destabilization hit call

COCCOc1cnc(Sc2cc(C)c(-c3csc(NC(=O)c4ccncc4)n3)c(C)c2)cn1 [T-1101 (tosylate)] (2.5 µM)
inactive: IRAK3 = 0 | JAK1 = 0 | LCK 0 | LIMK1 = 0 | LIMK2 = 0 | LMTK2 = 0 | LYN 0 | MAP2K1 = 0 | MAP2K2 = 0 | MAP4K2 = 0 | MAPK1 = 0 | MAPK4 = 0 | MAPKAPK2 = 0 | MKNK1 = 0 | NTRK2 = 0 | NTRK3 = 0 | PAK4 = 0 | PBK 0 | PDGFRB 0 | PDK1 = 0

Cc1cc2cc(Nc3ccnc(Nc4ccc5[nH]c(C)cc5c4)n3)ccc2[nH]1 (2.5 µM)
inactive: IRAK3 = 0 | JAK1 = 0 | LCK 0 | LIMK1 = 0 | LIMK2 = 0 | LMTK2 = 0 | LYN 0 | MAP2K1 = 0 | MAP2K2 = 0 | MAP4K2 = 0 | MAPK1 = 0 | MAPK4 = 0 | MAPKAPK2 = 0 | MKNK1 = 0 | NTRK2 = 0 | NTRK3 = 0 | PAK4 = 0 | PBK 0 | PDGFRB 0 | PDK1 = 0

CCN(CC)c1ccc2cc(C(=O)N3CCN(C(=O)C4=Cc5c(Br)cccc5S4(=O)=O)CC3)c(=O)oc2c1 (2 µM)
inactive: IRAK3 = 0 | JAK1 = 0 | LCK 0 | LIMK1 = 0 | LIMK2 = 0 | LMTK2 = 0 | LYN 0 | MAP2K1 = 0 | MAP2K2 = 0 | MAP4K2 = 0 | MAPK1 = 0 | MAPK4 = 0 | MAPKAPK2 = 0 | MKNK1 = 0 | NTRK2 = 0 | NTRK3 = 0 | PAK4 = 0 | PBK 0 | PDGFRB 0 | PDK1 = 0

Nothing new here: 2 of the compounds above.
Cc1cc2cc(Nc3ccnc(Nc4ccc5[nH]c(C)cc5c4)n3)ccc2[nH]1 (2.5 µM)
inactive: IRAK3 = 0 | JAK1 = 0 | LCK 0 | LIMK1 = 0 | LIMK2 = 0 | LMTK2 = 0 | LYN 0 | MAP2K1 = 0 | MAP2K2 = 0 | MAP4K2 = 0 | MAPK1 = 0 | MAPK4 = 0 | MAPKAPK2 = 0 | MKNK1 = 0 | NTRK2 = 0 | NTRK3 = 0 | PAK4 = 0 | PBK 0 | PDGFRB 0 | PDK1 = 0

CCN(CC)c1ccc2cc(C(=O)N3CCN(C(=O)C4=Cc5c(Br)cccc5S4(=O)=O)CC3)c(=O)oc2c1 (2 µM)
inactive: IRAK3 = 0 | JAK1 = 0 | LCK 0 | LIMK1 = 0 | LIMK2 = 0 | LMTK2 = 0 | LYN 0 | MAP2K1 = 0 | MAP2K2 = 0 | MAP4K2 = 0 | MAPK1 = 0 | MAPK4 = 0 | MAPKAPK2 = 0 | MKNK1 = 0 | NTRK2 = 0 | NTRK3 = 0 | PAK4 = 0 | PBK 0 | PDGFRB 0 | PDK1 = 0

(next part)

c1cc2c(cc1O[C@H]1OC[C@H]3[C@@H]1CO[C@@H]3c1ccc3c(c1)OCO3)OCO2 [Sesamolin] (10 µM)
inactive: IRAK3 = 0 | JAK1 = 0 | LCK 0 | LIMK1 = 0 | LIMK2 = 0 | LMTK2 = 0 | LYN 0 | MAP2K1 = 0 | MAP2K2 = 0 | MAP4K2 = 0 | MAPK1 = 0 | MAPK4 = 0 | MAPKAPK2 = 0 | MKNK1 = 0 | NTRK2 = 0 | NTRK3 = 0 | PAK4 = 0 | PBK 0 | PDGFRB 0 | PDK1 = 0

Cc1ccc(S(=O)(=O)/C=C/C#N)cc1 (10 µM)
inactive: IRAK3 = 0 | JAK1 = 0 | LCK 0 | LIMK1 = 0 | LIMK2 = 0 | LMTK2 = 0 | LYN 0 | MAP2K1 = 0 | MAP2K2 = 0 | MAP4K2 = 0 | MAPK1 = 0 | MAPK4 = 0 | MAPKAPK2 = 0 | MKNK1 = 0 | NTRK2 = 0 | NTRK3 = 0 | PAK4 = 0 | PBK 0 | PDGFRB 0 | PDK1 = 0

CCn1c(-c2nonc2N)nc2cnc(Oc3cccc(NC(=O)c4ccc(OCCN5CCOCC5)cc4)c3)cc21 (10 µM)
inactive: IRAK3 = 0 | JAK1 = 0 | LCK 0 | LIMK1 = 0 | LIMK2 = 0 | LMTK2 = 0 | LYN 0 | MAP2K1 = 0 | MAP2K2 = 0 | MAP4K2 = 0 | MAPK1 = 0 | MAPK4 = 0 | MAPKAPK2 = 0 | MKNK1 = 0 | NTRK2 = 0 | NTRK3 = 0 | PAK4 = 0 | PBK 0 | PDGFRB 0 | PDK1 = 0

Cn1cc(-c2ccc(CNc3cc(-c4cnc5cc(OCCCN6CCCC6)ccn45)ncn3)cc2)cn1 (10 µM)
inactive: IRAK3 = 0 | JAK1 = 0 | LCK 0 | LIMK1 = 0 | LIMK2 = 0 | LMTK2 = 0 | LYN 0 | MAP2K1 = 0 | MAP2K2 = 0 | MAP4K2 = 0 | MAPK1 = 0 | MAPK4 = 0 | MAPKAPK2 = 0 | MKNK1 = 0 | NTRK2 = 0 | NTRK3 = 0 | PAK4 = 0 | PBK 0 | PDGFRB 0 | PDK1 = 0

COC1(C(=O)N2Cc3nc(Cl)nc(N[C@H](C)c4cc(N)cc(C(F)(F)F)c4)c3C2)CCOCC1 (10 µM)
inactive: IRAK3 = 0 | JAK1 = 0 | LCK 0 | LIMK1 = 0 | LIMK2 = 0 | LMTK2 = 0 | LYN 0 | MAP2K1 = 0 | MAP2K2 = 0 | MAP4K2 = 0 | MAPK1 = 0 | MAPK4 = 0 | MAPKAPK2 = 0 | MKNK1 = 0 | NTRK2 = 0 | NTRK3 = 0 | PAK4 = 0 | PBK 0 | PDGFRB 0 | PDK1 = 0

Cc1cc([C@H](C)Nc2ccccc2)c2oc(N3CCOCC3)cc(=O)c2c1 (10 µM)
inactive: IRAK3 = 0 | JAK1 = 0 | LCK 0 | LIMK1 = 0 | LIMK2 = 0 | LMTK2 = 0 | LYN 0 | MAP2K1 = 0 | MAP2K2 = 0 | MAP4K2 = 0 | MAPK1 = 0 | MAPK4 = 0 | MAPKAPK2 = 0 | MKNK1 = 0 | NTRK2 = 0 | NTRK3 = 0 | PAK4 = 0 | PBK 0 | PDGFRB 0 | PDK1 = 0

C=C(CCC=C(C)C)[C@H]1CC[C@]2(C)[C@@H]1[C@H](O)C[C@@H]1[C@@]3(C)CC[C@H](O[C@@H]4O[C@H](CO)[C@@H](O)[C@H](O)[C@H]4O[C@@H]4O[C@H](CO)[C@@H](O)[C@H](O)[C@H]4O)C(C)(C)[C@@H]3CC[C@]12C [Ginsenoside Rk1] (10 µM)
inactive: IRAK3 = 0 | JAK1 = 0 | LCK 0 | LIMK1 = 0 | LIMK2 = 0 | LMTK2 = 0 | LYN 0 | MAP2K1 = 0 | MAP2K2 = 0 | MAP4K2 = 0 | MAPK1 = 0 | MAPK4 = 0 | MAPKAPK2 = 0 | MKNK1 = 0 | NTRK2 = 0 | NTRK3 = 0 | PAK4 = 0 | PBK 0 | PDGFRB 0 | PDK1 = 0

CC(=O)N1CCN(c2cc(-c3cc(C(F)(F)F)c4c(N)ncnn34)ccc2C#N)C(=O)C1(C)C (10 µM)
inactive: IRAK3 = 0 | JAK1 = 0 | LCK 0 | LIMK1 = 0 | LIMK2 = 0 | LMTK2 = 0 | LYN 0 | MAP2K1 = 0 | MAP2K2 = 0 | MAP4K2 = 0 | MAPK1 = 0 | MAPK4 = 0 | MAPKAPK2 = 0 | MKNK1 = 0 | NTRK2 = 0 | NTRK3 = 0 | PAK4 = 0 | PBK 0 | PDGFRB 0 | PDK1 = 0

Cn1c(=O)c(F)c(Nc2ccc(I)cc2F)c2c(=O)n(C[C@@H](O)CO)cnc21 (10 µM)
inactive: IRAK3 = 0 | JAK1 = 0 | LCK 0 | LIMK1 = 0 | LIMK2 = 0 | LMTK2 = 0 | LYN 0 | MAP2K1 = 0 | MAP2K2 = 0 | MAP4K2 = 0 | MAPK1 = 0 | MAPK4 = 0 | MAPKAPK2 = 0 | MKNK1 = 0 | NTRK2 = 0 | NTRK3 = 0 | PAK4 = 0 | PBK 0 | PDGFRB 0 | PDK1 = 0

Fc1ccc(-c2nc(-c3c(F)cccc3F)[nH]c2-c2ccncc2)cc1 (10 µM)
inactive: IRAK3 = 0 | JAK1 = 0 | LCK 0 | LIMK1 = 0 | LIMK2 = 0 | LMTK2 = 0 | LYN 0 | MAP2K1 = 0 | MAP2K2 = 0 | MAP4K2 = 0 | MAPK1 = 0 | MAPK4 = 0 | MAPKAPK2 = 0 | MKNK1 = 0 | NTRK2 = 0 | NTRK3 = 0 | PAK4 = 0 | PBK 0 | PDGFRB 0 | PDK1 = 0

CO[C@H]1C[C@@H]2CC[C@@H](C)[C@@](O)(O2)C(=O)C(=O)N2CCCC[C@H]2C(=O)O[C@H]([C@H](C)C[C@@H]2CC[C@@H](O)[C@H](OC)C2)CC(=O)[C@H](C)/C=C(\C)[C@@H](O)[C@@H](OC)C(=O)[C@H](C)C[C@H](C)/C=C/C=C/C=C/1C [Rapamycin] (10 µM)
inactive: IRAK3 = 0 | JAK1 = 0 | LCK 0 | LIMK1 = 0 | LIMK2 = 0 | LMTK2 = 0 | LYN 0 | MAP2K1 = 0 | MAP2K2 = 0 | MAP4K2 = 0 | MAPK1 = 0 | MAPK4 = 0 | MAPKAPK2 = 0 | MKNK1 = 0 | NTRK2 = 0 | NTRK3 = 0 | PAK4 = 0 | PBK 0 | PDGFRB 0 | PDK1 = 0

COc1ncc(-c2nc(N3CCOCC3)nc3c(CN4CCC(C(C)(C)O)CC4)cc(F)cc23)cc1NS(C)(=O)=O [Linperlisib] (10 µM)
inactive: IRAK3 = 0 | JAK1 = 0 | LCK 0 | LIMK1 = 0 | LIMK2 = 0 | LMTK2 = 0 | LYN 0 | MAP2K1 = 0 | MAP2K2 = 0 | MAP4K2 = 0 | MAPK1 = 0 | MAPK4 = 0 | MAPKAPK2 = 0 | MKNK1 = 0 | NTRK2 = 0 | NTRK3 = 0 | PAK4 = 0 | PBK 0 | PDGFRB 0 | PDK1 = 0

c1cn2cc(-c3ccc4cn[nH]c4c3)nc(Nc3ccc(N4CCOCC4)cc3)c2n1 [Entospletinib] (10 µM)
inactive: IRAK3 = 0 | JAK1 = 0 | LCK 0 | LIMK1 = 0 | LIMK2 = 0 | LMTK2 = 0 | LYN 0 | MAP2K1 = 0 | MAP2K2 = 0 | MAP4K2 = 0 | MAPK1 = 0 | MAPK4 = 0 | MAPKAPK2 = 0 | MKNK1 = 0 | NTRK2 = 0 | NTRK3 = 0 | PAK4 = 0 | PBK 0 | PDGFRB 0 | PDK1 = 0

CC(=NNC(=O)c1ccc(C)c(Br)c1)c1ccc(O)cc1O [mTOR inhibitor-1] (2.5 µM)
inactive: IRAK3 = 0 | JAK1 = 0 | LCK 0 | LIMK1 = 0 | LIMK2 = 0 | LMTK2 = 0 | LYN 0 | MAP2K1 = 0 | MAP2K2 = 0 | MAP4K2 = 0 | MAPK1 = 0 | MAPK4 = 0 | MAPKAPK2 = 0 | MKNK1 = 0 | NTRK2 = 0 | NTRK3 = 0 | PAK4 = 0 | PBK 0 | PDGFRB 0 | PDK1 = 0
